Drawing on article PMC4059726, this text covers binding for two molecules.

Sequences of proteins named here, by UniProt entry; tags and fusion partners are left off.
UniProt P21333: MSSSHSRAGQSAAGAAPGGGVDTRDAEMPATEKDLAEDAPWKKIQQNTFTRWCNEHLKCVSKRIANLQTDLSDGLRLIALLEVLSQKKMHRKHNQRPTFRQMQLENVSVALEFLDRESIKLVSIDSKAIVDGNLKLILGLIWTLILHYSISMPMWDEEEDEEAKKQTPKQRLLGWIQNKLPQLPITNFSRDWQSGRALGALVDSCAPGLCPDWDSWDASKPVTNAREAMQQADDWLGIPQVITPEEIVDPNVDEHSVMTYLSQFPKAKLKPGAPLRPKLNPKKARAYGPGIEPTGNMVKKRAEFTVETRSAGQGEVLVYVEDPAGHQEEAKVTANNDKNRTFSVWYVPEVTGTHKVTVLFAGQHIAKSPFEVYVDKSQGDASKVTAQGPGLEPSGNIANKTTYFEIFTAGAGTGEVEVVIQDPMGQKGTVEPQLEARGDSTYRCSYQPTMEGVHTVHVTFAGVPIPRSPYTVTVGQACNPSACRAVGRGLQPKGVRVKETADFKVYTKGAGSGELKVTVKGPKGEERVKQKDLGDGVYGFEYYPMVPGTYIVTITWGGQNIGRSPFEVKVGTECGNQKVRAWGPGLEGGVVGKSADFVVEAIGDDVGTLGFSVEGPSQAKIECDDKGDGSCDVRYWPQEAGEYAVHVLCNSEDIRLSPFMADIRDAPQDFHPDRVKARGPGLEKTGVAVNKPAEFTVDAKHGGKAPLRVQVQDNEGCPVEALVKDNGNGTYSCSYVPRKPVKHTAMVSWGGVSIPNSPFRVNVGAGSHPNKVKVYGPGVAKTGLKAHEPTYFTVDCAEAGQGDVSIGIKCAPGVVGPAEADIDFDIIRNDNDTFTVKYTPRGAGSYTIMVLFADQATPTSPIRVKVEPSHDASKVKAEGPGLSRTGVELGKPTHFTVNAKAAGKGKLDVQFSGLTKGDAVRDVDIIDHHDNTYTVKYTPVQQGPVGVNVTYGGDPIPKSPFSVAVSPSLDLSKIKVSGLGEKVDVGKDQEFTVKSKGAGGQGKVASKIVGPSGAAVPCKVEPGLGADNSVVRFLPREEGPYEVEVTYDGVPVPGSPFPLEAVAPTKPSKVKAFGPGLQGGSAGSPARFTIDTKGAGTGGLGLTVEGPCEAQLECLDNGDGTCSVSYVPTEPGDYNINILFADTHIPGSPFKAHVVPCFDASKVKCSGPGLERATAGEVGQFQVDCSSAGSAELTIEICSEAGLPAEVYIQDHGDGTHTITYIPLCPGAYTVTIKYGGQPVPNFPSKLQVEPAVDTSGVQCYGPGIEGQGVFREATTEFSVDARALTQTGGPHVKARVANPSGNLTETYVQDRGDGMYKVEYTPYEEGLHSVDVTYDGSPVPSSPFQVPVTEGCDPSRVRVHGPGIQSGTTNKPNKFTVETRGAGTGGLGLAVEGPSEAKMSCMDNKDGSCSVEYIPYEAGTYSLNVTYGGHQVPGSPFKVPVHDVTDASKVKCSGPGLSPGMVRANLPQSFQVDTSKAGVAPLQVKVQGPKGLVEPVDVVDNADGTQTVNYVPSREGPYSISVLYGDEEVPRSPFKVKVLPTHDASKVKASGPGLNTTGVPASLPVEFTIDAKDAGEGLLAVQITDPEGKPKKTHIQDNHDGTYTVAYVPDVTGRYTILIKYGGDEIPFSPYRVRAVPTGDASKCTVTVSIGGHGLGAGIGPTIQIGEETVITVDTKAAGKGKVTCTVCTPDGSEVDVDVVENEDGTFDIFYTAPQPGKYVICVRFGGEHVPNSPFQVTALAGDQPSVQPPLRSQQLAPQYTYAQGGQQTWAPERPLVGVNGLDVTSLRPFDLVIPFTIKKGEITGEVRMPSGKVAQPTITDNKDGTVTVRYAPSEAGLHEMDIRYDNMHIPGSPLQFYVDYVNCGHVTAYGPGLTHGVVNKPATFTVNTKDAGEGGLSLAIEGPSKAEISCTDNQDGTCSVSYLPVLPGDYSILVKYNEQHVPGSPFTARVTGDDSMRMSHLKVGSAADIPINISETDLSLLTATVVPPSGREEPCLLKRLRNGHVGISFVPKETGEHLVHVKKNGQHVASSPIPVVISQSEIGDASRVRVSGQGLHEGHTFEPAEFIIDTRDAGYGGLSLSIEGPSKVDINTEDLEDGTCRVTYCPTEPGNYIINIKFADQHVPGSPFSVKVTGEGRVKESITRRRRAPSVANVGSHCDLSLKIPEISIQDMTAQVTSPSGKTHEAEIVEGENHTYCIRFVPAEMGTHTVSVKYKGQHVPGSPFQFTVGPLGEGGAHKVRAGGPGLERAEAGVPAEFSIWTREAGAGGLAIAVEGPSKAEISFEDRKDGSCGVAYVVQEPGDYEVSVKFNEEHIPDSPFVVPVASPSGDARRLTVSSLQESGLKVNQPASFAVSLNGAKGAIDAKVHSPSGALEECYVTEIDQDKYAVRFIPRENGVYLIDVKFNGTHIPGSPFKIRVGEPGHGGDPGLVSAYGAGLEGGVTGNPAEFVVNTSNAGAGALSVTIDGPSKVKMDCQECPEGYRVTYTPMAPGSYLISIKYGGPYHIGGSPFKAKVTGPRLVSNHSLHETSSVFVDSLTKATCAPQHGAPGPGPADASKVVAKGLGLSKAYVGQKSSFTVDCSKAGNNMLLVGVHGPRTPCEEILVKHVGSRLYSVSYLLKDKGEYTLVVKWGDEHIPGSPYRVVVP

Results are given in words; binding and its absence hold for the method and conditions named. Binding seen in cells or lysates may run through a third protein. Some results given as binding are weak or reduced against the parent protein; the word gives no strength. Tags and fused reporters may be left off the sequences shown.

Experiment [1] deals with T1, HA-FilGAP (human) (UniProt Q8N264).
T1 sequence: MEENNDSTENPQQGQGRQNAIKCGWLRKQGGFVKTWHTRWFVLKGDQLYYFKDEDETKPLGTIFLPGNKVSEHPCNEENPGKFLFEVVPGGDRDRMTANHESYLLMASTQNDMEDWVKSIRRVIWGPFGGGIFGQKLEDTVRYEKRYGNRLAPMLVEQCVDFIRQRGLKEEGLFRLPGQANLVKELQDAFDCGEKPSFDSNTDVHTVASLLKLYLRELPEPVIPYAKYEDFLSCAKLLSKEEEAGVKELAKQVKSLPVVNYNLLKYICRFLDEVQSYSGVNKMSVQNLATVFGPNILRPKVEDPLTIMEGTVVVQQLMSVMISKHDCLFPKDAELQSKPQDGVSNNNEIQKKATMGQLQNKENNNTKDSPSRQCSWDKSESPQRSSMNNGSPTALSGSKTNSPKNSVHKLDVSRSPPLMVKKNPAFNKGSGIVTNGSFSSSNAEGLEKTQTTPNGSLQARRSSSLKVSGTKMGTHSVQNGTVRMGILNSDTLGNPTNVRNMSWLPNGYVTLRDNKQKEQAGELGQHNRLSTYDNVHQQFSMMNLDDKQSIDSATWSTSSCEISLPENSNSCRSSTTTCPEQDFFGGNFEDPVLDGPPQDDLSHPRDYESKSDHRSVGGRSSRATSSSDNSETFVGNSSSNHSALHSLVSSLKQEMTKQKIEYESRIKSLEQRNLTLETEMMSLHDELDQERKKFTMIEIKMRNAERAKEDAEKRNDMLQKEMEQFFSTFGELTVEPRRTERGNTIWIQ
Put plainly: co-IP; HEK cells transfected with HA-ARHGAP22 or HA-FilGAP; immunoprecipitated from cell extracts with anti-HA agarose; endogenous FLNa detected by immunoblot with anti-FLNa antibody.

For experiment [2], the target named is T1, HA-FilGAP (human). Put plainly: co-IP; HEK293 cells co-transfected with the HA-tagged and the FLAG-tagged copy of the same protein; anti-HA agarose, 1 h at 4°C; 20 mM Tris-HCl pH 7.5, 150 mM NaCl, 1 mM EDTA, 0.1% NP-40; immunoblot with anti-FLAG and anti-HA. For orientation: In western blotting, separated proteins are transferred to a membrane and probed.

Experiment [3] addresses T1, HA-FilGAP (human). Put plainly: cross-linking; transfected HEK293 cells treated with DSP (1 mM, 30 min, 25°C), lysed, boiled with or without 2-mercaptoethanol; immunoblot with anti-ARHGAP22 or anti-FilGAP antibody.

Turning to Filamin A (from UniProt P21333 1-2647), the binding result in the experiment with HA-FilGAP (human) [1] was “binds”.

B1: HA-FilGAP (protein, UniProt Q8N264-1 1-748)
chain: T1 sequence
As for B1, the binding entry with HA-FilGAP (human) [2] and in the experiment with HA-FilGAP (human) [3] was “binds” each time.
